No signal at the amounts used counts as a negative.
Experiments:
streptavidin = streptavidin (UniProt P22629); experiment: ELONA; settings: 5'-biotin (ELONA); 8 mM Na2HPO4, 2 mM NaH2PO4, 2.7 mM KCl, 137 mM NaCl, 4 mM MgCl2, pH 7.4, room temperature, 2 h; wells coated with 10 nM AChE, blocked with 1% BSA; commercial protein; label: 5'-biotin, detected by streptavidin-HRP; single-stranded DNA
[1] = target: bovine serum albumin (BSA) (bovine) (UniProt P02769); experiment: ELONA; settings: 5'-biotin (ELONA); 8 mM Na2HPO4, 2 mM NaH2PO4, 2.7 mM KCl, 137 mM NaCl, 4 mM MgCl2, pH 7.4, room temperature, 2 h; wells coated with 10 nM AChE, blocked with 1% BSA; commercial protein; label: 5'-biotin, detected by streptavidin-HRP; single-stranded DNA

Chains of the proteins cited; added tags and fusions are not shown. Lines headed by an entry give the natural chain unless they say otherwise; changes in a name come on top. Residues count along the entry.
UniProt P22629: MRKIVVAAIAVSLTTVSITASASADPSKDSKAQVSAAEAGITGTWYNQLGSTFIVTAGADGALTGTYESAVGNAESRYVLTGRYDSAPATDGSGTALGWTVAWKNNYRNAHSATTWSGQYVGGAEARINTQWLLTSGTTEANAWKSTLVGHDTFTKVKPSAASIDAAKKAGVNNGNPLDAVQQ
UniProt P02769, 25-607: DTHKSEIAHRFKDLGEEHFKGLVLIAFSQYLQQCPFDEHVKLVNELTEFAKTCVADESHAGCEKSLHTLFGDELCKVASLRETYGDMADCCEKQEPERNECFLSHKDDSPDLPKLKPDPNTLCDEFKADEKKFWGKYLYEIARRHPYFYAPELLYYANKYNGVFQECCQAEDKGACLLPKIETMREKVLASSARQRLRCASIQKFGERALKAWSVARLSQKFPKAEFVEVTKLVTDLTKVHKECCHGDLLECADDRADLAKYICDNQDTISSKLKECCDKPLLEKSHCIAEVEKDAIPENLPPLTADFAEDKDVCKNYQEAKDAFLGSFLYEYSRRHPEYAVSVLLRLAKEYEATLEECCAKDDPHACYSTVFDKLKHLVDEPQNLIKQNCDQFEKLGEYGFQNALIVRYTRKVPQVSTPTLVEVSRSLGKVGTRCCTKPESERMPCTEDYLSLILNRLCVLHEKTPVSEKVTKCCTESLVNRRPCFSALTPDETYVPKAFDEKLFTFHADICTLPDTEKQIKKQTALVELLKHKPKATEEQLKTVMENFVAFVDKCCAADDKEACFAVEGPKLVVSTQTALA

AAGCATCCGCTGGTTGACTGTAGCTCTGGCAGACGTAGTGTGAAGGTACCAGCTATTGGGATCTTGGACCCTGCGAA [R15/19 (also R15/C19)]
binding result (streptavidin): no binding | binding result [1]: no binding
